These are yes or no findings as the source states them, for the method shown. Binding seen in cells or lysates may run through a third protein. Some binding calls cover weakened binding; strength is not graded here. Tags and fused reporters may be left off the sequences shown.
Molecular target: EFR:GFP (transiently expressed in N. benthamiana) (Arabidopsis thaliana) (UniProt C0LGT6)
Experiment: co-IP; transient co-expression in N. benthamiana; leaves treated with 100 nM elf18 or mock (water) for 10 min; GFP-tagged receptor precipitated with GFP-Trap agarose beads (3 hr, 4°C; 150 mM Tris-HCl pH 7.5, 150 mM NaCl, 10% glycerol, 1% IGEPAL CA630, 10 mM DTT); blots with anti-GFP and anti-HA

Sequences of proteins named here, by UniProt entry; tags and fusion partners are left off. Residues count along the entry.
UniProt C0LGT6, residues 25-1031: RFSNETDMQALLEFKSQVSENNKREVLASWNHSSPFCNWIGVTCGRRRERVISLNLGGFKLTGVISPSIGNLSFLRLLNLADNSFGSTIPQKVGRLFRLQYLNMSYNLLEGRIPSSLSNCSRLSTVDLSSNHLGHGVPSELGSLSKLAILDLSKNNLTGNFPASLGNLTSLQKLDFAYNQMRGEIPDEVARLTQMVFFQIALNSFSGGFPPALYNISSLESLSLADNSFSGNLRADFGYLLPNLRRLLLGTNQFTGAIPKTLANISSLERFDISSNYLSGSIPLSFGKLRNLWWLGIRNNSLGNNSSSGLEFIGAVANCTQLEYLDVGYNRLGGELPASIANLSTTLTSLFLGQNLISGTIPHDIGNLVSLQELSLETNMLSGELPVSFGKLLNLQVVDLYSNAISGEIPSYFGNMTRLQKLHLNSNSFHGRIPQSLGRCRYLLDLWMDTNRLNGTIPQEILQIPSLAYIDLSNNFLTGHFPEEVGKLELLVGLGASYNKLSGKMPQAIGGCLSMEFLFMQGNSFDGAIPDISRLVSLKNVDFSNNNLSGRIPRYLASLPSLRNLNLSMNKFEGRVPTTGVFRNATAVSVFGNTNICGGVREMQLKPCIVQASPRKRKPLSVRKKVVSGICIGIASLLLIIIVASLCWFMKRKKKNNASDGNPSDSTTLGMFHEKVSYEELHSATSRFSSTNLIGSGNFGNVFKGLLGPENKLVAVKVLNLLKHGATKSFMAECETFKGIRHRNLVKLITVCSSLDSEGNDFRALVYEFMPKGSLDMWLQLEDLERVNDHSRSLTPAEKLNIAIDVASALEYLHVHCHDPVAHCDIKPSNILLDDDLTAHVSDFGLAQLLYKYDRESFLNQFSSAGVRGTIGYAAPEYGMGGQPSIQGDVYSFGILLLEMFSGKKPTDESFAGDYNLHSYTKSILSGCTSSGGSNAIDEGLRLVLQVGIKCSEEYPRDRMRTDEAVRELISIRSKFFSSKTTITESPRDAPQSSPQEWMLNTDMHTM

B1: HA-tagged PLL4 (enzyme, UniProt Q9ZV25 1-654)
chain: MGNGIGKLSKCLTGGAGRNKKPELSILEPDPLDEGLGHSFCYVRPDPTRVSSSKVHSEEETTTFRTISGASVSANTATPLSTSLYDPYGHIDRAAAFESTTSFSSIPLQPIPRSSGPIVPGSGPLERGFLSGPIERGFMSGPLDGSSGPIDGKTGSDQFQRSFSHGLANLRVGSRKGSLVRVLRRAISKTITRGQNSIVAPIKPVKEPDWVFGSDKTRIHQIENNLTVNSLNFSSEGSLLDDDVSLESQNLQWAQGKAGEDRVHVVVSEEHGWLFVGIYDGFNGPDAPDYLLSHLYPAVHRELKGLLWDDPKTDAKSSDEADVENRDSSSEKKSKNWEESQRRWRCEWDRDLDRLLKDRSNGLDLDPDPNSSDVLKALSQALRKTEEAYLENADMMLDENPELALMGSCVLVMLMKGEDVYLMNVGDSRAVLGQKAESDYWIGKIKQDLERINEETMNDFDGCGDGEGASLVPTLSAFQLTVDHSTNVEEEVNRIRKEHPDDASAVSNERVKGSLKVTRAFGAGFLKQPKWNNALLEMFQIDYKGTSPYINCLPSLYHHRLGSKDQFLILSSDGLYQYFTNEEAVSEVELFITLQPEGDPAQHLVQELLFRAAKKAGMDFHELLEIPQGERRRYHDDVSIVVISLEGRMWKSCV
With B1 the binding was “binds”.

B2: HA-tagged PLL5 (enzyme, UniProt Q9LQN6 1-662)
chain: MGNGVTKLSICFTGGGGERLRPKDISVLLPDPLDEGLGHSFCYVRPDPTLISSSKVHSEEDTTTTTFRTISGASVSANTATPLSTSLYDPYGHIDRAAAFESTTSFSSIPLQPIPKSSGPIVLGSGPIERGFLSGPIERGFMSGPLDRVGLFSGPLDKPNSDHHHQFQRSFSHGLALRVGSRKRSLVRILRRAISKTMSRGQNSIVAPIKSVKDSDNWGIRSEKSRNLHNENLTVNSLNFSSEVSLDDDVSLENQNLQWAQGKAGEDRVHVVVSEEHGWLFVGIYDGFNGPDAPDYLLSHLYPVVHRELKGLLWDDSNVESKSQDLERSNGDESCSNQEKDETCERWWRCEWDRESQDLDRRLKEQISRRSGSDRLTNHSEVLEALSQALRKTEEAYLDTADKMLDENPELALMGSCVLVMLMKGEDIYVMNVGDSRAVLGQKSEPDYWLAKIRQDLERINEETMMNDLEGCEGDQSSLVPNLSAFQLTVDHSTNIEEEVERIRNEHPDDVTAVTNERVKGSLKVTRAFGAGFLKQPKWNNALLEMFQIDYVGKSPYINCLPSLYHHRLGSKDRFLILSSDGLYQYFTNEEAVSEVELFITLQPEGDPAQHLVQELLFRAAKKAGMDFHELLEIPQGERRRYHDDVSIVVISLEGRMWKSCV
B2 was tested, and the binding was “binds”.

— article PMC4301810
